According to patent US10508147B2, “Anti-nodal antibodies and methods of using same” (ANN AND ROBERT H. LURIE CHILDREN'S HOSPITAL OF CHICAGO, priority 2014, dated 2019):

System: 3D1 mAb
Experiment: ELISA epitope mapping and specificity assay of coated peptides probed with 3D1
Assay type: binding, mouse
Settings: epitope mapping by ELISA and SPR
Experimental: Residues underlying the binding between 3D1 and Nodal were investigated by epitope mapping using a set of Nodal synthetic peptides (See FIG. 9). […] Peptides were immobilized at 1 μg/mL and probed with 3D1 at […]. Data were normalized to the binding of the peptide hNODAL (44-69) wild-type (WT). […] Most interactions were established with C43, P46, V47, E49, E50. The effect of Y58 can be on the conformation of the peptide.
Peptides used for the epitope mapping and for the specificity assay of the 3D1 mAb were coated at 1.0 μg/mL diluted in PBS; 3D1 mAb, dissolved in PBS, was used as primary antibody at 1.0 μg/mL.

## 3D1: mouse monoclonal anti-Nodal antibody raised against hNodal(44-67); light chain SEQ ID NO:1, heavy chains SEQ ID NO:2 and 3
  epitope region of Nodal recognized: residues encompassing the 43-56 region
Listed as 3D1 mAb
  epitope region of Nodal recognized: region (44-56) contains the epitope
